Library screen at single concentrations

Mtb cholesterol medium: 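Growth of Mycobacterium tuberculosis over 4 days (cholesterol / DPPC medium with tyloxapol); the read-out is not stated. Tested at 50 µM. Direction is inferred from retests: higher values go with more growth inhibition. Of about 69,000 compounds tested this way, about 370 (0.54%) reached 50% or more in at least one test.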
Mtb glucose medium: 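Phenotypic screen: M. tuberculosis growth, glucose 7H9 medium, 3 days; the read-out is not stated. Compounds at 50 µM. The record gives no direction; compounds that gave an IC50 in retests scored well above the rest, so higher reads as more growth inhibition. Size under these conditions: about 69,000 compounds, about 760 of them at 50% or above in at least one test.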

Each number is a percent effect as filed. The controls that fix the scale are not given in the record; negative values are as filed. This is an unselected part of the compounds tested. Two or more numbers in one place are separate tests of the same structure; such repeats can differ widely.

* CN(C)C(=O)c1cccc(CCNc2ccccc2S(C)(=O)=O)c1 | Mtb cholesterol medium: -8.16%; Mtb glucose medium: -10.25%
* CCN1CCC(CC(=O)NCCc2nc(C)c(Cl)s2)CC1 | Mtb cholesterol medium: 6.49%; Mtb glucose medium: 13.71%
* Cc1cccc(NC(=O)C(C)Oc2ccc3c(c2)OCO3)n1 (centres undefined) | Mtb cholesterol medium: 50.58%; Mtb glucose medium: 54.91%
* [H][C@@]12CCN(Cc3ccco3)C[C@@]1([H])O[C@@H](c1ccnc(C(C)C)n1)C2 | Mtb cholesterol medium: 1.677%; Mtb glucose medium: 2.321%
* O=C1CC(c2ccc(C(=O)O)cc2)c2ncn(-c3ccccc3Cl)c2N1 (centres undefined) | Mtb cholesterol medium: -6.852% & 12.93%; Mtb glucose medium: -3.255%
* [H][C@@]12CN(c3ncnc4sccc34)C[C@]1(C(=O)O)CN(CC1CC1)C2=O | Mtb cholesterol medium: 9.598%; Mtb glucose medium: -3.898%
* COc1ccc2c(c1)C(=O)NC1(CC2)CCN(Cc2ccncc2)C1 (centres undefined) | Mtb cholesterol medium: 0.3139% & -11.04%; Mtb glucose medium: -21.41%
* [H][C@@]12CCN(S(=O)(=O)c3cccs3)[C@]1([H])CCC(=O)N2C | Mtb cholesterol medium: -15.57%; Mtb glucose medium: -29.49%
* COc1ccc(CN(C)C2CCN(S(C)(=O)=O)CC2)c2cccnc12 | Mtb cholesterol medium: -22.05%; Mtb glucose medium: -7.558%
* CC(CO)Nc1ccc(-c2nc(Cc3ccc(F)cc3)no2)cn1 (centres undefined) | Mtb cholesterol medium: 11.11%; Mtb glucose medium: 0.2022%
* CCN1C(=O)CC(c2cnn(C)c2)C12CCN(C(=O)c1ccoc1)CC2 (centres undefined) | Mtb cholesterol medium: 19.6%; Mtb glucose medium: 13.2% & -8.174%
* CC(C)(C)CC(=O)N1CSCC1C(=O)NC1=NCCS1 (centres undefined) | Mtb cholesterol medium: -9.144%; Mtb glucose medium: 12.92%
* CN1CCN(C2CCN(CCOc3cccc(F)c3)CC2)C1=O | Mtb cholesterol medium: -7.919%; Mtb glucose medium: 15.39%
* CCOCCN1CCN(CC2(O)CCCCC2)CC1 | Mtb cholesterol medium: 13.01%; Mtb glucose medium: 10.51%
* COCCN1CCC12CCN(C(=O)c1ccc3[nH]ccc3c1)C2 (centres undefined) | Mtb cholesterol medium: -2.523%; Mtb glucose medium: 27.42%
* O=C1N(CCc2ccccc2)CCCC12CCN(C(CO)CO)C2 (centres undefined) | Mtb cholesterol medium: -6.965%; Mtb glucose medium: 3.38% & 7.515%
* Cc1cc(C)n(CC2CN(Cc3cnc(C)s3)CCO2)n1 (centres undefined) | Mtb cholesterol medium: -16.22%; Mtb glucose medium: 16.54%
* Cc1nccn1CC1CCN(C(=O)c2ccccc2)CC1 | Mtb cholesterol medium: -20.04%; Mtb glucose medium: 1.995%
* O=C(c1scc2c1OCCO2)N1CCOC(Cc2cccc(F)c2)C1 (centres undefined) | Mtb cholesterol medium: -3.689%; Mtb glucose medium: 15.23%
* COc1ccccc1CNC(=O)CNCCn1cc(C)cn1 | Mtb cholesterol medium: -8.222%; Mtb glucose medium: 13.62%
* O=C(c1ncc[nH]1)N1CCC(Cn2cc(-c3cccc(Cl)c3)nn2)CC1 | Mtb cholesterol medium: -6.743%; Mtb glucose medium: 10.83%
* [H][C@@]12CCN(Cc3ccccc3)C[C@@]1([H])O[C@H](C(=O)NCC1CC1)C2 | Mtb cholesterol medium: 6.128%; Mtb glucose medium: -0.2994%
* CC(C)CN(c1cn[nH]c1)S(=O)(=O)c1cccc(C#N)c1 | Mtb cholesterol medium: -12.38%; Mtb glucose medium: -15.6% & -7.539%
* Cc1[nH]c2c(C)ccc(C)c2c1CC(=O)NCc1csc(N(C)C)n1 | Mtb cholesterol medium: -15.33% & -6.636%; Mtb glucose medium: -16.17%
* COc1ccc(SC(C)C(=O)N2CCC(NC(=O)C3CC3)CC2)cc1 (centres undefined) | Mtb cholesterol medium: -0.1123%; Mtb glucose medium: 0.5417% & -3.406%
* Cc1nnc(N2CCCC3(CN(Cc4nccs4)CCO3)C2)o1.O=C(O)C(F)(F)F.O=C(O)C(F)(F)F (centres undefined) | Mtb cholesterol medium: -11.59%; Mtb glucose medium: -42.65%
* Cc1cccc(C2CCCN(C(=O)CN3CCCC3=O)C2)c1 (centres undefined) | Mtb cholesterol medium: 10.92%; Mtb glucose medium: 7.153%
* Cc1[nH]nc(-c2ccc(F)cc2)c1CC(=O)NCC1CCOCC1 | Mtb cholesterol medium: 15.56%; Mtb glucose medium: 6.274% & -2.678%
* Cc1cc(C(=O)Nc2cccn(Cc3ccc(F)cc3)c2=O)on1 | Mtb cholesterol medium: -2.239%; Mtb glucose medium: 1.931%
* Cc1cnn(CC2CCCCN2Cc2nc(C)c3ccccc3n2)c1 (centres undefined) | Mtb cholesterol medium: -21.18%; Mtb glucose medium: 23.39%
* CCCc1nnc(NC2CCN(C3CCOCC3)CC2)o1 | Mtb cholesterol medium: -2.383%; Mtb glucose medium: 2.908%
* [H][C@]12CCN(C(=O)NC3CCCC3)CC[C@@]1([H])S(=O)(=O)N(CCC(C)C)C2 | Mtb cholesterol medium: -23.95%; Mtb glucose medium: -2.89%
* CC(C)c1nnc2n1CCN(C(=O)c1ccc3cc[nH]c3c1)C2 | Mtb cholesterol medium: -15.8%; Mtb glucose medium: -21.58%
* Cc1cc(O)cc(=O)n1CCCC(=O)Nc1n[nH]c2cccc(F)c12 | Mtb cholesterol medium: 14.1%; Mtb glucose medium: 10.87%
* [H][C@]12OCCN(C(=O)C3CCOCC3)[C@@]1([H])CC[C@@H]2OCc1ccncc1 | Mtb cholesterol medium: -14.62%; Mtb glucose medium: -6.435%
* O=C(NCc1cccnc1)NC1CCCN(c2ncccn2)C1 (centres undefined) | Mtb cholesterol medium: -9.627%; Mtb glucose medium: -21.57%
* CCOCCn1c(=O)n(Cc2ccc(F)cc2)c2ncc(C(=O)O)cc21 | Mtb cholesterol medium: -1.026% & 3.902%; Mtb glucose medium: 12.46% & 2.464%
* CN1CCN(S(=O)(=O)c2cccnc2)c2cnccc21 | Mtb cholesterol medium: -2.614%; Mtb glucose medium: 19.7% & -29.84%
* [H][C@]12CC[C@@]3(N=C(CC)N(CC)C3=O)[C@@]1([H])CN(S(=O)(=O)CC(C)C)C2 | Mtb cholesterol medium: 8.543% & -3.463%; Mtb glucose medium: 4.398% & -4.038%
* Cc1ncsc1CCN(C)Cc1cc2n(n1)CCN(Cc1ccco1)C2 | Mtb cholesterol medium: 18.24%; Mtb glucose medium: -0.1487%
* COCCn1c2c(ccc1=O)CC(NCc1cccnc1OC)CC2.O=C(O)C(F)(F)F.O=C(O)C(F)(F)F (centres undefined) | Mtb cholesterol medium: -11.93%; Mtb glucose medium: -9.358%
* C[C@@H]1CN(Cc2ccncc2)C[C@@]1(O)C1CC1 | Mtb cholesterol medium: 9.823%; Mtb glucose medium: 3.776%
* CCS(=O)(=O)CC(=O)NC(c1ccc(F)cc1)C1CCCC1 (centres undefined) | Mtb cholesterol medium: -11.93%; Mtb glucose medium: -4.625% & -19.17%
* [H][C@@]12CN(CCCc3ccccc3)C[C@]1([H])OCC(=O)N2CCOC | Mtb cholesterol medium: 0.3178%; Mtb glucose medium: -2.907% & 22.11%
* CN(C)C(=O)NCC1CC2(CO1)CN(c1nncs1)C2 (centres undefined) | Mtb cholesterol medium: -10.14%; Mtb glucose medium: -15.52%
* Cc1cc(C(=O)NC2(c3ccc(Br)cc3)CC2)n(C)n1 | Mtb cholesterol medium: 1.505%; Mtb glucose medium: 14.26%
* COc1cc(CNC2CCc3nc(C)nn3C2)cc2c1OCO2 (centres undefined) | Mtb cholesterol medium: -11.27%; Mtb glucose medium: -9.533%
* CCc1ccc(C(=O)Nc2ccc(CC3CC(=O)NC3=O)cc2)cc1 (centres undefined) | Mtb cholesterol medium: 11.78%; Mtb glucose medium: 11.04% & 1.806%

The last 4 entries again:

CN(C)C(=O)NCC1CC2(CO1)CN(c1nncs1)C2 (centres undefined) gave Mtb cholesterol medium: -10.14%; Mtb glucose medium: -15.52%.
Cc1cc(C(=O)NC2(c3ccc(Br)cc3)CC2)n(C)n1 gave Mtb cholesterol medium: 1.505%; Mtb glucose medium: 14.26%.
COc1cc(CNC2CCc3nc(C)nn3C2)cc2c1OCO2 (centres undefined) gave Mtb cholesterol medium: -11.27%; Mtb glucose medium: -9.533%.
CCc1ccc(C(=O)Nc2ccc(CC3CC(=O)NC3=O)cc2)cc1 (centres undefined) gave Mtb cholesterol medium: 11.78%; Mtb glucose medium: 11.04% & 1.806%.

From ChEMBL document CHEMBL3988442, “University of Dundee, Small-Polar-MMV Screening Library” (2021).